# Data from the supplement of paper PMC7666118.
# Chains of the proteins cited; added tags and fusions are not shown. Lines headed by an entry give the natural chain unless they say otherwise; changes in a name come on top.
# UniProt P67812: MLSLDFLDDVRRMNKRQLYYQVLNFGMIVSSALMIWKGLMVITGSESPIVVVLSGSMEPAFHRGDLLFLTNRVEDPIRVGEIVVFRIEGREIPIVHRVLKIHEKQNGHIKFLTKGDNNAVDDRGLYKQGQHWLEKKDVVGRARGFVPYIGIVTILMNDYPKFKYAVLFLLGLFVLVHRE
# UniProt Q01826: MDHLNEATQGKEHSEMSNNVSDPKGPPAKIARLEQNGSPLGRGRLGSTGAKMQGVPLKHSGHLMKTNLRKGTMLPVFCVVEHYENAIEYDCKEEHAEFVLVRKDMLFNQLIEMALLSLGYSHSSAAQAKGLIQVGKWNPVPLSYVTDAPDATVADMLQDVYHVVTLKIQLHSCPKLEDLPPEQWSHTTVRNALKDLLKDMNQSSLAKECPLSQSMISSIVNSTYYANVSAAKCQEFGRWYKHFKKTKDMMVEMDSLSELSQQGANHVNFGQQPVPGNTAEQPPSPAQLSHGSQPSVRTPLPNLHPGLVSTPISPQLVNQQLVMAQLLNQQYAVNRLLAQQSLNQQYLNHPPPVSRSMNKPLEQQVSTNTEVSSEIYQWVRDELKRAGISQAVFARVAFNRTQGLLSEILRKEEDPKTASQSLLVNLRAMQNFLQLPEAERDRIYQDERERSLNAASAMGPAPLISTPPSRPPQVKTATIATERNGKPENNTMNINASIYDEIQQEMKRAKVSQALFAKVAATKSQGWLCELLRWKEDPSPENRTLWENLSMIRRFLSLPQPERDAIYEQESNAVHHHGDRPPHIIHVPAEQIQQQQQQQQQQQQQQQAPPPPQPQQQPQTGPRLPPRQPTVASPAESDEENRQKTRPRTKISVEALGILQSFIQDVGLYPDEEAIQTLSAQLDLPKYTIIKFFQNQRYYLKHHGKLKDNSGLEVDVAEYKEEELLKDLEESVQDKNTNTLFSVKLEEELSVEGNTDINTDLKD
# UniProt Q13464: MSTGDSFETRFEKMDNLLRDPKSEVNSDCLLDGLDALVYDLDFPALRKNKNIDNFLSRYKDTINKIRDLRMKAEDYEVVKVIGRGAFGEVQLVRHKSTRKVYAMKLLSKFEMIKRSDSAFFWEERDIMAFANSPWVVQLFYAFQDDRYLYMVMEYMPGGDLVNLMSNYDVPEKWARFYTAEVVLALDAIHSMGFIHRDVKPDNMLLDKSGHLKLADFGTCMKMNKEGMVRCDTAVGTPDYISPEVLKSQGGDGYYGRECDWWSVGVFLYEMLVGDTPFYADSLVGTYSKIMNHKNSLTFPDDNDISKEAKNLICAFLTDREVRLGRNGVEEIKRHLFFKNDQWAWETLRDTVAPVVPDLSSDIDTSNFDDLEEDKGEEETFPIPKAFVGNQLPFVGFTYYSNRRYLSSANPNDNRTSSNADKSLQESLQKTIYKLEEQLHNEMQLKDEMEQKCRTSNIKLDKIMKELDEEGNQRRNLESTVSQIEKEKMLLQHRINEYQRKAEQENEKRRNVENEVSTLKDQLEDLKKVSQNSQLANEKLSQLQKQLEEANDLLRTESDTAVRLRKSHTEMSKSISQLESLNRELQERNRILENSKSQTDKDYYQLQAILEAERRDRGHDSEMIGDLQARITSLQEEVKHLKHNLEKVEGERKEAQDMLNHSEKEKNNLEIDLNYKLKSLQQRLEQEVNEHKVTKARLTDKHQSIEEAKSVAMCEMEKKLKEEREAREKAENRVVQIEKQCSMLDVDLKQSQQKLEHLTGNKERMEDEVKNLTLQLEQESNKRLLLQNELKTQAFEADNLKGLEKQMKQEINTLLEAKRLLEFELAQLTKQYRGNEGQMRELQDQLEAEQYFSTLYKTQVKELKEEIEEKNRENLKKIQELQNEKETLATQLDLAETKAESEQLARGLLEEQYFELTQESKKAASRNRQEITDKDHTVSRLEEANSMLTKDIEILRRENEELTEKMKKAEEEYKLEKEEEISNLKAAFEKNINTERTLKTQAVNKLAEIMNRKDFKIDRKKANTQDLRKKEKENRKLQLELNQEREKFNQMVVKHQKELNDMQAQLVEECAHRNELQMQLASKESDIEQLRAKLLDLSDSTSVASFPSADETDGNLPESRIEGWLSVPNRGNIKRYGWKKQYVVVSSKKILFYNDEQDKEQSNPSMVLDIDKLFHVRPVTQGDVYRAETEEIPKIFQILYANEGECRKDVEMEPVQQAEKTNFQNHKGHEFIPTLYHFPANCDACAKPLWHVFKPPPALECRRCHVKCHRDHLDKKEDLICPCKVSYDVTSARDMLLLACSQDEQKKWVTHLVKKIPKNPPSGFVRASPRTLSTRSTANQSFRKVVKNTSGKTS
# UniProt Q5H9R7: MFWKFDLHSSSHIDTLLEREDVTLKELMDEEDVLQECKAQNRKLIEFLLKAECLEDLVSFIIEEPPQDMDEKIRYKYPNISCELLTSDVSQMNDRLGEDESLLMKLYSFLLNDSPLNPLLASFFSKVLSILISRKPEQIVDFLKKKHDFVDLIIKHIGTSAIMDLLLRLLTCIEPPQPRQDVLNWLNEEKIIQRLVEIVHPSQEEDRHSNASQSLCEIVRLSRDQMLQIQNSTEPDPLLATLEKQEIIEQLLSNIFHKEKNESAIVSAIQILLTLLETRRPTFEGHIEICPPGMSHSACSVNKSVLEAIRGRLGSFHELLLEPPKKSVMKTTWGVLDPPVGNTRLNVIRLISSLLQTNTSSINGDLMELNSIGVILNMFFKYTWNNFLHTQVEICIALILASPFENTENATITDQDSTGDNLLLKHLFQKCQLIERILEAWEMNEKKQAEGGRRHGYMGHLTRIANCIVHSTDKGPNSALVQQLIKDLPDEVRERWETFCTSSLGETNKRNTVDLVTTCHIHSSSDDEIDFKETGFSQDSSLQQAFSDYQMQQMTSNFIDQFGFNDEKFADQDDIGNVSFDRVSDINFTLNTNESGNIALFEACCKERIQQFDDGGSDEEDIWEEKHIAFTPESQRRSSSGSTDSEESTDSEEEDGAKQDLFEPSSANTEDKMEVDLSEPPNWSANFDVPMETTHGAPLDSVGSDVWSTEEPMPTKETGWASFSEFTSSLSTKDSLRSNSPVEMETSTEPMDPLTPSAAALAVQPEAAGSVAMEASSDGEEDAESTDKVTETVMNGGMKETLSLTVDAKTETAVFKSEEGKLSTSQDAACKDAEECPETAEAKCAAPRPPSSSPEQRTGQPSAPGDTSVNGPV
# UniProt Q99942: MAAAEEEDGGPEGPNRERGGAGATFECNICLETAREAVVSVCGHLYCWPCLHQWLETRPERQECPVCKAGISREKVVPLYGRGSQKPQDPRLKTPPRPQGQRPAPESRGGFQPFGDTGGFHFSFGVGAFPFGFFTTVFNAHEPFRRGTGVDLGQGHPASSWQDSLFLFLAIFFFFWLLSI
# UniProt P61619, whole entry: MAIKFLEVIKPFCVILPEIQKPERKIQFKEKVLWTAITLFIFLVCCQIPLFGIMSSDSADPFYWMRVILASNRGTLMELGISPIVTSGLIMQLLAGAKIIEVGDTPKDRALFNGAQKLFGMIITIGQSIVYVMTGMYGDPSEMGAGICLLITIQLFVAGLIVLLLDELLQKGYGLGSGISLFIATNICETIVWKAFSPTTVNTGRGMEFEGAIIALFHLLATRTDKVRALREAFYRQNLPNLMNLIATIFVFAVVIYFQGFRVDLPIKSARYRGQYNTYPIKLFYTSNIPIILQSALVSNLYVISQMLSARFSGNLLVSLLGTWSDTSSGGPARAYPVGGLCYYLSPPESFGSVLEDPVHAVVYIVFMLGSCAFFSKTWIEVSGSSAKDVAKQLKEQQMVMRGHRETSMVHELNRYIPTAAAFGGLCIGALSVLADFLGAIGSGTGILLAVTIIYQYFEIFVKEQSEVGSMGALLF
# UniProt Q9C0C4, whole entry: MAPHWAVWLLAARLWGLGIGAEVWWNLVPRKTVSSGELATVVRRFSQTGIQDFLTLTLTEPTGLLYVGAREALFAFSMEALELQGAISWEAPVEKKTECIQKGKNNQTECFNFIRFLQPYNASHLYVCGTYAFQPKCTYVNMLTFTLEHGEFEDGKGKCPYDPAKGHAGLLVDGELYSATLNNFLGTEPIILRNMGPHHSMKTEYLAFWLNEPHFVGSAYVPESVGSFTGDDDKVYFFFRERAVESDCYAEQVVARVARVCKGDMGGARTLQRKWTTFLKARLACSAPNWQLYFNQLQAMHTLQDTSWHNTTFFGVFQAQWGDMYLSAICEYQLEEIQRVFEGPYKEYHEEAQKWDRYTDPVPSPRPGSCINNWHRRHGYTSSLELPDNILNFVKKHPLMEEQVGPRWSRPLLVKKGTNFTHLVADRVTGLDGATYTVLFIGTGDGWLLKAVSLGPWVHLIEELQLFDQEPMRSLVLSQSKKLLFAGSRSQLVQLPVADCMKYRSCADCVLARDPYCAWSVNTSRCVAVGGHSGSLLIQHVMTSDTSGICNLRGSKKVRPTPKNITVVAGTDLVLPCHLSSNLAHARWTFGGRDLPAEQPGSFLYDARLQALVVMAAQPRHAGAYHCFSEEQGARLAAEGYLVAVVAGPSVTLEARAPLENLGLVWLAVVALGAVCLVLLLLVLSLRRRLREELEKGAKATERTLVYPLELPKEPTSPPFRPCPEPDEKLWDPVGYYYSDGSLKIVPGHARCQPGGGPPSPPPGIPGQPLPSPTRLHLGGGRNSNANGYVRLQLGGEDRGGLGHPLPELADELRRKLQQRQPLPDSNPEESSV
# UniProt P05386, whole entry: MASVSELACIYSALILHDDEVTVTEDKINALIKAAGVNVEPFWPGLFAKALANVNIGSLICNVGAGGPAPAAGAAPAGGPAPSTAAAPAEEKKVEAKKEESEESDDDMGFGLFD
# UniProt Q9H0E3: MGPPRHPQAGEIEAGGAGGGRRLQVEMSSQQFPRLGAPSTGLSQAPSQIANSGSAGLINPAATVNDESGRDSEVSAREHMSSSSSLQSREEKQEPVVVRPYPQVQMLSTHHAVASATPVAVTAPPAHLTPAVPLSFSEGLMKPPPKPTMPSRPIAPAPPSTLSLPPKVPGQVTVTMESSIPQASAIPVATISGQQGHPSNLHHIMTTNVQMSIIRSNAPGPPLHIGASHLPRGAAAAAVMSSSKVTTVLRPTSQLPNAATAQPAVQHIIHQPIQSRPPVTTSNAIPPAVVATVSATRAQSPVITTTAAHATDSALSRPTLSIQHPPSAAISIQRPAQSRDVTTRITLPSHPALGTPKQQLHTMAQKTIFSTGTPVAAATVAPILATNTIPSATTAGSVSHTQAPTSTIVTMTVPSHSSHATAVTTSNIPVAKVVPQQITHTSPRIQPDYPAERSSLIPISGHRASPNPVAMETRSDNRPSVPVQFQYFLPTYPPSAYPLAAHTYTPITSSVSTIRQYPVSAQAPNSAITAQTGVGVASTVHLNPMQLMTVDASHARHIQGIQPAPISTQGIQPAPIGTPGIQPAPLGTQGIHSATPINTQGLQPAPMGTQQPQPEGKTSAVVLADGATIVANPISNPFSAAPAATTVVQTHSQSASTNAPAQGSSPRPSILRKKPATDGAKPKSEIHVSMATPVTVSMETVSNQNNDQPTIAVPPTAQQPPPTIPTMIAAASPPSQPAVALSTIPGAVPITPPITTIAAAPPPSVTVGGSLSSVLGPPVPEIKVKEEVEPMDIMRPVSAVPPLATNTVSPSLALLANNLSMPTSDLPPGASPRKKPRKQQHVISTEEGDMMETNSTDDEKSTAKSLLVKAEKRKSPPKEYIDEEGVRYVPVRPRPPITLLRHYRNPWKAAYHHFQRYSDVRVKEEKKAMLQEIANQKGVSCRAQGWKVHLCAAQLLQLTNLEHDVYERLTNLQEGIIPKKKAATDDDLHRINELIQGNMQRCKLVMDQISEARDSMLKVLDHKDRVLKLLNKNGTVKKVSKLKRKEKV
# UniProt Q6P087: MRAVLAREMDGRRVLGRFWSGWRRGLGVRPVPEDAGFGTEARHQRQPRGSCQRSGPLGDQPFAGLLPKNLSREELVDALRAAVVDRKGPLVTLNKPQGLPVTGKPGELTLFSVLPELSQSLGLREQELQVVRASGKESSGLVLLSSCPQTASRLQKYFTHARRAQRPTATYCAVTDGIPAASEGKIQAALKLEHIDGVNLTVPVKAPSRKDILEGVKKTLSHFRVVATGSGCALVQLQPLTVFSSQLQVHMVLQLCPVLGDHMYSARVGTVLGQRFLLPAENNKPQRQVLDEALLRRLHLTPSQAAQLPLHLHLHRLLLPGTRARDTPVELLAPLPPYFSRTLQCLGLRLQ
# UniProt O15127: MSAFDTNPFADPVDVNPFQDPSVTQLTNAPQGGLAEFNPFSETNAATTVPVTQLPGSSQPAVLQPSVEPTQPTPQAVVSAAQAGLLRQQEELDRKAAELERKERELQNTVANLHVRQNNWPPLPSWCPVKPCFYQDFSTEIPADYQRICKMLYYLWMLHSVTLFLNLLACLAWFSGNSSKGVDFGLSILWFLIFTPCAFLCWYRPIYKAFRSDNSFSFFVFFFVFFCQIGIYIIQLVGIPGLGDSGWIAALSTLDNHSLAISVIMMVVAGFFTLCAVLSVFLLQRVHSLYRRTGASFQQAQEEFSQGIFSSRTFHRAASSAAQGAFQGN
# This is one part of the list.
# Compound: COc1ccc(Cn2ccc3cc(C)c(C(=O)NO)cc32)cc1
# Assay: dose-dependent thermal stabilisation call (2D-TPP, DLPTP, 10% FDR) (binary (1 = stabilised)); higher = stabilised by the compound
# Details: system: HL-60 intact cells; concentration range 0.04-10 µM
# Procedure: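 2D thermal proteome profiling in intact HL-60 cells treated with BRD-3811 (0, 0.04, 0.29, 2, 10 uM) for 90 min at 37 C, then heated 3 min at one of 12 temperatures (42-63.9 C). Soluble protein was quantified by TMT10 MS. The value is the DLPTP call of the paper: dose-dependent thermal stabilisation over all temperatures at 10% FDR (F-test of a dose-response against a flat model); one experiment, one call per tested protein.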
row,Target,dose-dependent thermal stabilisation call
1,RPS16 (UniProt P62249),inactive: 0
2,SEC11A (UniProt P67812),inactive: 0
3,RTN4 (UniProt Q9NQC3),inactive: 0
4,RPRD1A (UniProt Q96P16),inactive: 0
5,RPS5 (UniProt P46782),inactive: 0
6,RPL8 (UniProt P62917),inactive: 0
7,SDAD1 (UniProt Q9NVU7),inactive: 0
8,SATB1 (UniProt Q01826),inactive: 0
9,ROCK1 (UniProt Q13464),inactive: 0
10,SAPS3 (UniProt Q5H9R7),inactive: 0
11,RPS3A (UniProt P61247),inactive: 0
12,RREB1 (UniProt Q92766),inactive: 0
13,RRP1B (UniProt Q14684),inactive: 0
14,RP5-1000E10 4,inactive: 0
15,RPS25 (UniProt P62851),inactive: 0
16,SCAMP3 (UniProt O14828),inactive: 0
17,SC5DL (UniProt O75845),inactive: 0
18,RNF5 (UniProt Q99942),inactive: 0

# Pulled one by one from above:
row,Target,dose-dependent thermal stabilisation call
3,RTN4 (UniProt Q9NQC3),inactive: 0
9,ROCK1 (UniProt Q13464),inactive: 0
16,SCAMP3 (UniProt O14828),inactive: 0

# Next part

row,Target,dose-dependent thermal stabilisation call
1,RPUSD2 (UniProt Q8IZ73),inactive: 0
2,SEPT1 (UniProt Q8WYJ6),inactive: 0
3,SEC61A1 (UniProt P61619),inactive: 0
4,RPAP3 (UniProt Q9H6T3),inactive: 0
5,SCAMP4 (UniProt Q969E2),inactive: 0
6,SEMA4C (UniProt Q9C0C4),inactive: 0
7,RPLP1 (UniProt P05386),inactive: 0
8,RRP9 (UniProt O43818),inactive: 0
9,RPL24 (UniProt P83731),inactive: 0
10,RQCD1 (UniProt Q92600),inactive: 0
11,SAP130 (UniProt Q9H0E3),inactive: 0
12,RPUSD4 (UniProt Q96CM3),inactive: 0
13,RPA1 (UniProt P27694),inactive: 0
14,SCYL1BP1 (UniProt Q5T7V8),inactive: 0
15,RPL14 (UniProt P50914),inactive: 0
16,RPUSD3 (UniProt Q6P087),inactive: 0
17,SEMA4D (UniProt Q92854),inactive: 0
18,SCAMP2 (UniProt O15127),inactive: 0
